# Record: PubChem BioAssay AID1224830 (NIAID, 2016)
# Purpose: 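Host factors that control LPS-induced TNF expression in human macrophages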 (primary screen)
# System: human THP-1 monocytic leukaemia cells, TNF dual-luciferase reporter clone, PMA-differentiated to macrophage-like cells
# Knock-down reagent: siRNA pool against human genes, 50 nM
# Time to read-out: LPS for 4 h, given about 3 days after siRNA transfection
# Treatment: bacterial LPS (TLR4 ligand), 10 ng/ml
# Detection: 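TNF firefly reporter luminescence divided by renilla, normalised to the plate median, then turned into a robust z-score for each replicate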
# Direction: TNF reporter robust z-score: higher = stronger TNF reporter response to LPS
# Active means: 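Each well counts as active if its z-score is over 2.8 or under -1.5; controls are left without a call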
# The deposit covers about 18,000 reagents; shown is an unselected part. Of all reagents, about 2,900 (16%) are marked active. 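Calls are made per well; low scores hint the gene aids the LPS response, high scores that it dampens it.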 A number with no mark means an inactive call. Repeated entries: four replicate wells of each siRNA pool. Reagent sequences are not shown.
TNF reporter robust z-score,gene symbol
-1.98 (active),UBALD1
-1.5,UBALD1
-1.59 (active),UBALD1
-1.24,UBALD1
-0.33,STK10
1.35,STK10
0.06,STK10
1.08,STK10
-0.58,KATNIP
-0.15,KATNIP
-1.03,KATNIP
-0.42,KATNIP
-0.59,AZIN2
-0.9,AZIN2
1.29,AZIN2
0.45,AZIN2
1.77,TIA1
-0.18,TIA1
0.85,TIA1
3.38 (active),TIA1
0.03,KDM1A
0.51,KDM1A
-0.59,KDM1A
1.08,KDM1A
-0.37,H3-4
-1.03,H3-4
-0.68,H3-4
-0.41,H3-4
-1.04,SHTN1
-0.45,SHTN1
0,SHTN1
0.64,SHTN1
0.1,KPNA6
0.07,KPNA6
0.36,KPNA6
-0.27,KPNA6
0.63,HSD17B1
0.49,HSD17B1
0.46,HSD17B1
0.55,HSD17B1
-0.03,NPHP3
1.05,NPHP3
0.26,NPHP3
0.56,NPHP3
-0.98,ATP1A3
-0.94,ATP1A3
-1.37,ATP1A3
-0.95,ATP1A3
0.44,PLXND1
0.28,PLXND1
0.47,PLXND1
0.55,PLXND1
0.2,STIM1
0.5,STIM1
9.25 (active),STIM1
2.37,STIM1
-0.84,S1PR1
-0.61,S1PR1
-0.65,S1PR1
-0.31,S1PR1
-0.23,FARS2
0.84,FARS2
0.07,FARS2
1.09,FARS2
1.33,CLIC6
-0.29,CLIC6
-1.39,CLIC6
0.73,CLIC6
-0.59,ITGA11
-0.35,ITGA11
-0.74,ITGA11
0.2,ITGA11
-1.45,TMEM25
-0.24,TMEM25
0.92,TMEM25
0.46,TMEM25
-0.18,BPIFC
0.03,BPIFC
0.01,BPIFC
0.61,BPIFC
0.33,EBP
0.32,EBP
-1.14,EBP
0.24,EBP
-0.22,FCGR2A
2.16,FCGR2A
0.91,FCGR2A
0.55,FCGR2A
1.63,NUCB2
0.32,NUCB2
-0.02,NUCB2
0.27,NUCB2
0.29,EPB41L3
-0.01,EPB41L3
-0.48,EPB41L3
0.22,EPB41L3
0.64,TMEM184B
0.38,TMEM184B
0.83,TMEM184B
0.39,TMEM184B
1.08,TLX3
0.58,TLX3
1.68,TLX3
-0.05,TLX3
-0.35,ZNF710
-0.47,ZNF710
-0.13,ZNF710
-0.21,ZNF710
-0.31,HOXB13
1.2,HOXB13
0.59,HOXB13
1.07,HOXB13
